Laboratory results reported in US11001590B2, “Pyrazolopyrimidine derivatives” (BAYER ANIMAL HEALTH GMBH, priority 2016, dated 2021).
Some of these results come from one statement about several compounds together. At least one structure is not confirmed: it was looked up by name or label, or the drawing left a doubt.

How the values were obtained:
[1] = test system: Nippostrongylus brasiliensis; experiment: In vitro assay 2: Nippostrongylus brasiliensis (NIPOBR), acetylcholine esterase readout; conditions: adult worms
Procedure: In Vitro Assay 2: Nippostronqylus Brasiliensis (NIPOBR)
Adult Nippostrongylus brasiliensis were washed with saline buffer containing 100 U/ml penicillin, 0.1 mg/ml streptomycin and 2.5 μg/ml amphotericin B. Test compounds were dissolved in DMSO and worms were incubated in medium in a final concentration of 10 μg/ml (10 ppm) respectively 1 μg/ml (1 ppm). An aliquot of the medium was used to determine the acetylcholine esterase activity in comparison to a negative control. The principle of measuring acetylcholine esterase as readout for anthelmintic activity was described in Rapson et al (1986) and Rapson et al (1987).

Haemonchus contortus = experiment: In vitro assay 6: Haemonchus contortus (HAEMCO), larval mortality; conditions: application rate 20 ppm; after 5 days
Cooperia curticei = experiment: In vitro assay 5: Cooperia curticei (COOPCU), larval mortality; conditions: application rate 20 ppm; after 5 days

O=C(N[C@H]1CCOc2ccccc21)c1cnc2c(-c3c(F)ccc(Cl)c3F)c(C(F)F)nn2c1C1CC1 [Example 280]
activity (reduction of AChE compared to negative control) ([1]; 1 μg/ml (1 ppm)): higher than 80% | activity (reduction of AChE compared to negative control) ([1]; 10 μg/ml (10 ppm)): higher than 80%

Cc1nn2c(C(C)C)c(C(=O)N[C@H]3CCc4ccccc43)cnc2c1-c1cnn(CC(F)(F)F)c1 [Example 310]
activity (reduction of AChE compared to negative control) ([1]; 10 μg/ml (10 ppm)): higher than 80%

Cc1nn2c(C(C)C)c(C(=O)N[C@H]3CCOc4ccccc43)cnc2c1-c1cnn(CC(F)(F)F)c1 [Example 401]
activity (reduction of AChE compared to negative control) ([1]; 10 μg/ml (10 ppm)): higher than 80% | activity (percentage of larval mortality) (Haemonchus contortus): 80% | activity (percentage of larval mortality) (Cooperia curticei): 90%

CCc1c(C(=O)N[C@H]2CCOc3ccccc32)cnc2c(-c3c(F)ccc(Cl)c3F)c(C)nn12 [Example 489]
activity (reduction of AChE compared to negative control) ([1]; 1 μg/ml (1 ppm)): higher than 80% | activity (reduction of AChE compared to negative control) ([1]; 10 μg/ml (10 ppm)): higher than 80% | activity (percentage of larval mortality) (Cooperia curticei): 100%

COc1c(Cl)ccc(-c2c(C)nn3c(C(C)C)c(C(=O)N[C@H]4CCOc5ccccc54)cnc23)c1F [Example 216]
activity (reduction of AChE compared to negative control) ([1]; 1 μg/ml (1 ppm)): higher than 80% | activity (reduction of AChE compared to negative control) ([1]; 10 μg/ml (10 ppm)): higher than 80% | activity (percentage of larval mortality) (Haemonchus contortus): 80% | activity (percentage of larval mortality) (Cooperia curticei): 80%

Cc1nn2c(C(C)C)c(C(=O)N[C@H]3CCOc4ccccc43)cnc2c1-c1ccc(Cl)c(Cl)c1 [Example 230]
activity (reduction of AChE compared to negative control) ([1]; 1 μg/ml (1 ppm)): higher than 80% | activity (reduction of AChE compared to negative control) ([1]; 10 μg/ml (10 ppm)): higher than 80%

Cc1nn2c(N(C)C)c(C(=O)N[C@H]3CCOc4ccccc43)cnc2c1-c1ccc(F)c(N(C)C)c1F [Example 550]
activity (reduction of AChE compared to negative control) ([1]; 1 μg/ml (1 ppm)): higher than 80%

Cc1nn2c(C(C)C)c(C(=O)N[C@H]3CCOc4ccccc43)cnc2c1-c1ccc(C(F)(F)F)c(F)c1 [Example 187]
activity (percentage of larval mortality) (Haemonchus contortus): 80% | activity (percentage of larval mortality) (Cooperia curticei): 90%

COc1ccc(F)c(-c2c(C)nn3c(C(C)C)c(C(=O)N[C@H]4CCOc5ccccc54)cnc23)c1Cl [Example 233]
activity (reduction of AChE compared to negative control) ([1]; 1 μg/ml (1 ppm)): higher than 80% | activity (reduction of AChE compared to negative control) ([1]; 10 μg/ml (10 ppm)): higher than 80%

Cc1nn2c(C(C)C)c(C(=O)N[C@H]3CCOc4ccccc43)cnc2c1-c1cccc2[nH]ccc12 [Example 481]
activity (reduction of AChE compared to negative control) ([1]; 1 μg/ml (1 ppm)): higher than 80% | activity (reduction of AChE compared to negative control) ([1]; 10 μg/ml (10 ppm)): higher than 80% | activity (percentage of larval mortality) (Haemonchus contortus): 100% | activity (percentage of larval mortality) (Cooperia curticei): 100%

CC(C)c1c(C(=O)N[C@H]2CCOc3ccccc32)cnc2c(-c3ccc(Cl)cc3Cl)c(C(F)F)nn12 [Example 507]
activity (reduction of AChE compared to negative control) ([1]; 10 μg/ml (10 ppm)): higher than 80%

Cc1nn2c(N3CCOCC3)c(C(=O)N[C@H]3CCOc4ccccc43)cnc2c1-c1c(F)ccc(Cl)c1F [Example 545]
activity (reduction of AChE compared to negative control) ([1]; 1 μg/ml (1 ppm)): higher than 80% | activity (percentage of larval mortality) (Haemonchus contortus): 100% | activity (percentage of larval mortality) (Cooperia curticei): 100%

CCc1c(C(=O)N[C@H]2CCOc3ccccc32)cnc2c(-c3c(Cl)cccc3Cl)c(C)nn12 [Example 491]
activity (reduction of AChE compared to negative control) ([1]; 10 μg/ml (10 ppm)): higher than 80%

COc1c(F)ccc(-c2c(C)nn3c(C4CC4)c(C(=O)N[C@H]4CCOc5ccccc54)cnc23)c1F [Example 284]
activity (reduction of AChE compared to negative control) ([1]; 1 μg/ml (1 ppm)): higher than 80% | activity (reduction of AChE compared to negative control) ([1]; 10 μg/ml (10 ppm)): higher than 80%

Cc1nn2c(C(C)C)c(C(=O)N[C@H]3CCCc4ccccc43)cnc2c1-c1cnn(CC(F)(F)F)c1 [Example 359]
activity (reduction of AChE compared to negative control) ([1]; 10 μg/ml (10 ppm)): higher than 80%

Cc1nn2c(N3CCOCC3)c(C(=O)N[C@H]3CCOc4ccccc43)cnc2c1-c1ccc(F)c(N(C)C)c1F [Example 543]
activity (reduction of AChE compared to negative control) ([1]; 1 μg/ml (1 ppm)): higher than 80%

Cc1nn2c(N(C)C)c(C(=O)N[C@H]3CCOc4ccccc43)cnc2c1-c1cc(C(F)(F)F)ccc1F [Example 547]
activity (percentage of larval mortality) (Cooperia curticei): 80%

COc1c(F)ccc(-c2c(C)nn3c(N(C)C)c(C(=O)N[C@H]4CCOc5ccccc54)cnc23)c1F [Example 551]
activity (reduction of AChE compared to negative control) ([1]; 1 μg/ml (1 ppm)): higher than 80%

CCc1c(C(=O)N[C@H]2CCOc3ccccc32)cnc2c(-c3ccc(F)c(F)c3F)c(C)nn12 [Example 490]
activity (reduction of AChE compared to negative control) ([1]; 10 μg/ml (10 ppm)): higher than 80%

COc1c(F)cc(F)c(-c2c(C)nn3c(C4CC4)c(C(=O)N[C@H]4CCOc5ccccc54)cnc23)c1F [Example 482]
activity (reduction of AChE compared to negative control) ([1]; 1 μg/ml (1 ppm)): higher than 80% | activity (reduction of AChE compared to negative control) ([1]; 10 μg/ml (10 ppm)): higher than 80% | activity (percentage of larval mortality) (Haemonchus contortus): 100% | activity (percentage of larval mortality) (Cooperia curticei): 100%

CCc1c(C(=O)N[C@H]2CCOc3ccccc32)cnc2c(-c3c(F)cccc3Cl)c(C)nn12 [Example 479]
activity (reduction of AChE compared to negative control) ([1]; 10 μg/ml (10 ppm)): higher than 80% | activity (percentage of larval mortality) (Cooperia curticei): 80%

CCc1c(C(=O)N[C@H]2CCOc3ccccc32)cnc2c(-c3cccc(Cl)c3Cl)c(C)nn12 [Example 484]
activity (percentage of larval mortality) (Haemonchus contortus): 80% | activity (percentage of larval mortality) (Cooperia curticei): 90%

COc1c(F)cc(F)c(-c2c(C)nn3c(C(C)C)c(C(=O)N[C@H]4CCOc5ccccc54)cnc23)c1F [Example 235]
activity (reduction of AChE compared to negative control) ([1]; 1 μg/ml (1 ppm)): higher than 80% | activity (reduction of AChE compared to negative control) ([1]; 10 μg/ml (10 ppm)): higher than 80% | activity (percentage of larval mortality) (Haemonchus contortus): 100% | activity (percentage of larval mortality) (Cooperia curticei): 100%

CC(C)c1c(C(=O)N[C@H]2CCOc3ccccc32)cnc2c(-c3cccc(Cl)c3Cl)c(C(F)F)nn12 [Example 505]
activity (percentage of larval mortality) (Cooperia curticei): 80%

Cc1nn2c(C(C)C)c(C(=O)N[C@H]3CCOc4ccccc43)cnc2c1-c1cccc2c1ccn2C [Example 483]
activity (reduction of AChE compared to negative control) ([1]; 10 μg/ml (10 ppm)): higher than 80%

CCc1c(C(=O)N[C@H]2CCOc3ccccc32)cnc2c(-c3cccc(F)c3F)c(C)nn12 [Example 477]
activity (reduction of AChE compared to negative control) ([1]; 10 μg/ml (10 ppm)): higher than 80% | activity (percentage of larval mortality) (Haemonchus contortus): 80% | activity (percentage of larval mortality) (Cooperia curticei): 90%

Cc1nn2c(C(C)C)c(C(=O)N[C@H]3CCOc4ccccc43)cnc2c1-c1ccc(F)c(N(C)C)c1F [Example 283]
activity (reduction of AChE compared to negative control) ([1]; 1 μg/ml (1 ppm)): higher than 80% | activity (reduction of AChE compared to negative control) ([1]; 10 μg/ml (10 ppm)): higher than 80% | activity (percentage of larval mortality) (Haemonchus contortus): 100% | activity (percentage of larval mortality) (Cooperia curticei): 100%

CCc1c(C(=O)N[C@H]2CCOc3ccccc32)cnc2c(-c3ccc(F)c(OC)c3F)c(C)nn12 [Example 496]
activity (reduction of AChE compared to negative control) ([1]; 1 μg/ml (1 ppm)): higher than 80% | activity (reduction of AChE compared to negative control) ([1]; 10 μg/ml (10 ppm)): higher than 80%

CC(C)c1c(C(=O)N[C@H]2CCOc3ccccc32)cnc2c(-c3cc(Cl)c(F)c(Cl)c3)c(C(F)F)nn12 [Example 282]
activity (reduction of AChE compared to negative control) ([1]; 10 μg/ml (10 ppm)): higher than 80%

Cc1nn2c(C3CC3)c(C(=O)N[C@H]3CCOc4ccccc43)cnc2c1-c1cnn(CC(F)(F)F)c1 [Example 468]
activity (reduction of AChE compared to negative control) ([1]; 10 μg/ml (10 ppm)): higher than 80%

Cc1nn2c(C(C)C)c(C(=O)N[C@H]3CCOc4ccccc43)cnc2c1-c1cccc(OC(F)(F)F)c1F [Example 215]
activity (reduction of AChE compared to negative control) ([1]; 1 μg/ml (1 ppm)): higher than 80% | activity (reduction of AChE compared to negative control) ([1]; 10 μg/ml (10 ppm)): higher than 80% | activity (percentage of larval mortality) (Haemonchus contortus): 100% | activity (percentage of larval mortality) (Cooperia curticei): 100%
